From PMC3832446
Results are given in words; binding and its absence hold for the method and conditions named. Binding seen in cells or lysates may run through a third protein. Some results given as binding are weak or reduced against the parent protein; the word gives no strength. Sequences can lack the tags named with a protein.

Molecular target: T1, Flag-tagged retinoic acid-inducible gene I (RIG-I) (UniProt O95786)
T1 sequence: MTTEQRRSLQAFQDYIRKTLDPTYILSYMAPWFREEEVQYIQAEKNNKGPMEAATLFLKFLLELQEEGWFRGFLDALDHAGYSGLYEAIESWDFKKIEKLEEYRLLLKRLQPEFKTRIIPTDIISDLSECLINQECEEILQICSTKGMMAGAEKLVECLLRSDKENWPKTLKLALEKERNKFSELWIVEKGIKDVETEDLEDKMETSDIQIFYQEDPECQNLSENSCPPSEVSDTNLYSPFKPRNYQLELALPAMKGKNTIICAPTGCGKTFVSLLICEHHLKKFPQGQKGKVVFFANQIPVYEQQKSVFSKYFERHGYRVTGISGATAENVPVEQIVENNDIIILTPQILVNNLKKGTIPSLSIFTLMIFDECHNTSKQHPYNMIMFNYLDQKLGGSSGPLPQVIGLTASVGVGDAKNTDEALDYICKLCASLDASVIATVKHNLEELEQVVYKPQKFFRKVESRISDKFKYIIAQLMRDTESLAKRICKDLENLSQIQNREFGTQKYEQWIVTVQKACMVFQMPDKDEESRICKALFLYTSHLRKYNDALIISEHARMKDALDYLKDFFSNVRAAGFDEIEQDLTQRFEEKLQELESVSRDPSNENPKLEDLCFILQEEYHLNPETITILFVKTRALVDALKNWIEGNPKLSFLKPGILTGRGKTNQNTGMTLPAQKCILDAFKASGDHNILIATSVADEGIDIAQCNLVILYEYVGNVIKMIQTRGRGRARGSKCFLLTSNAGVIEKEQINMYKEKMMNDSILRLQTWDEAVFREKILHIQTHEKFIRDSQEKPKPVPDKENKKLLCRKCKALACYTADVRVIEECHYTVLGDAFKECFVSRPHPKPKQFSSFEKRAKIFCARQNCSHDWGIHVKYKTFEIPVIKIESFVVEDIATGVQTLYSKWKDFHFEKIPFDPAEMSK
Test: co-IP; HEK-293T cells in 100-mm dishes co-transfected with RIG-I or TRAF6 vector (4 ug) and HA-USP25 (4 ug); lysis in 50 mM Tris-HCl pH 7.4, 150 mM NaCl, 1% NP40, 10% glycerin, 0.1% SDS, 2 mM Na2EDTA; antibodies and protein A+G agarose at 4 C; immunoblots with anti-HA and anti-Flag

In the case of “HA-tagged ubiquitin-specific protease 25 (USP25), wild type (from UniProt Q9UHP3-2 1-1055) (enzyme)”, the binding is reported as “binds”.
